# According to PMC4596637:
# Chains of the proteins cited; added tags and fusions are not shown.
# UniProt Q1L8J7: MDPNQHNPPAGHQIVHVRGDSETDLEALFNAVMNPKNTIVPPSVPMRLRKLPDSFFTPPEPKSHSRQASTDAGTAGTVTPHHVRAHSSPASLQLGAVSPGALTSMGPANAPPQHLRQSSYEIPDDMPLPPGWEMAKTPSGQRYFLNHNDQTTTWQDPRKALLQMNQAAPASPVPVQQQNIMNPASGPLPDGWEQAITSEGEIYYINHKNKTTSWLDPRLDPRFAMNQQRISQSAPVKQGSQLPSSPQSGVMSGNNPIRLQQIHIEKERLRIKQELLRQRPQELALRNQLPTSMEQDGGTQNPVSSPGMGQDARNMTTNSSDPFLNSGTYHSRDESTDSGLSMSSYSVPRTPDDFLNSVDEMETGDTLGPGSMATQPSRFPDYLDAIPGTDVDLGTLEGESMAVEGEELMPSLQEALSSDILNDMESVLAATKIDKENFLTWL
# Results are given in words; binding and its absence hold for the method and conditions named. Some entries that bind do so weakly or less than the wild type. Sequences can lack the tags named with a protein.
# Target: T1, zebrafish Amotl2a fused to the Gal4 DNA-binding domain (pGBKT7) (zebrafish) (UniProt A1YB07)
# T1 sequence: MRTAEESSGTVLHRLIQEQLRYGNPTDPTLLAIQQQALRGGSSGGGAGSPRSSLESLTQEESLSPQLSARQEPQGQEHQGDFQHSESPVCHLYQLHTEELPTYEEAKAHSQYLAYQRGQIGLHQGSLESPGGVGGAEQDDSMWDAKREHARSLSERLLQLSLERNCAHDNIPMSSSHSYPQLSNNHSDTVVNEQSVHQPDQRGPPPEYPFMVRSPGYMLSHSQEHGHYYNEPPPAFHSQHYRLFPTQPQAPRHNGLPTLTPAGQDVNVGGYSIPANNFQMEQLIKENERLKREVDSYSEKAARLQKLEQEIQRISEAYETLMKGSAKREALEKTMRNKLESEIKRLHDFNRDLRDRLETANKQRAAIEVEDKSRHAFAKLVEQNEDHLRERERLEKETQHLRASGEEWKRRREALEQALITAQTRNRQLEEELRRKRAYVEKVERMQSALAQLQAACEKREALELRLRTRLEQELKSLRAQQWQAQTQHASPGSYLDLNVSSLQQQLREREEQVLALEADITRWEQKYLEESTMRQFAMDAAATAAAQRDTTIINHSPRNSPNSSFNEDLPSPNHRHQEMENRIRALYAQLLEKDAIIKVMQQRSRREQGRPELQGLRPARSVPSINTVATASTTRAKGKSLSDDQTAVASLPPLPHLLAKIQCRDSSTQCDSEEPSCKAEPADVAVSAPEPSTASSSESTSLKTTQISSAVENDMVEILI
# Test: two-hybrid; Y2H assay, Matchmaker system, AH109 yeast; Amotl2a forms fused to the Gal4 DNA-binding domain (pGBKT7), Yap1/Taz forms fused to the Gal4 activation domain (pGADT7); patched on selective plates lacking histidine, grown 3-4 days
substance,measurement,value
zebrafish Yap1 fused to the Gal4 activation domain (pGADT7) (from UniProt Q1L8J7 1-442),binding,binds
